Experimental data: CN114874330A
These are yes or no findings as the source states them, for the method shown. Some binding calls cover weakened binding; strength is not graded here.

Legend:
CT103A scFv [1] = test: competition ELISA, antibody pre-incubated with biotin-CT103A scFv; competitor: coated BCMA
CT103A scFv [2] = test: ELISA, purified recombinant antibody on coated CT103A scFv at 1 ug/ml
CT103A scFv [3] = test: ELISA, LEM supernatant on coated CT103A scFv at 1 ug/ml
[4] = molecular target: BCMA-CAR (CAR with the CT103A scFv) on cells; test: flow cytometry on BCMA-CAR-Jurkat cells

binding (CT103A scFv [1]): binds | binding (CT103A scFv [2]): binds | binding (CT103A scFv [3]): binds | binding [4]: binds
B1: 6G8 (antibody, V domains shown)
VH: QSLEESGGRLVKPDETLTLTCTVSGFTISSYGMSWVRQAPGNGLEWIGAIDSSGSAHYARWAKSRSTITRNTNENTVTLKMTSLTAADTATYFCARWDVDYWSYFNIWGPGTLVTVSS
VL: DVVMTQTPASVSDPVGGTVTIKCQASENIYNGLAWYQQKPGQPPKLLIYGTSTLASGVPSRFSGSGSGTQFTLTISDLECDDAATYYCQCTYYEGGYFFGFGGGTEVVVKG
